# Measurements: PubChem BioAssay AID1487 (National Center for Advancing Translational Sciences (NCATS), 2009)
# The other results are listed elsewhere or left out. The main result of the screen is listed elsewhere. These columns were measured beside it and carry no call. The list favours compounds with an active or inconclusive main result. Words in brackets tell the shape of the fitted curve; partial curves, single points and poor fits give uncertain potencies.
# Experiment: qHTS Assay for Modulators of Lamin A Splicing
# Details: HeLa LMNA splicing GFP/RFP minigene ratio, 48 h
# Procedure, shortened: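 S3 HeLa stable clones carrying a lamin A-EGFP splicing minigene plus DsRed2 were seeded at 600 cells/well in Opti-MEM with 2% FBS, pin-dosed and incubated 48 h at 37°C. Acumen cytometry (488 nm) gave the GFP/RFP total-intensity ratio.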
# [1] = measured here: RFP viability control channel
# [2] = measured here: GFP splicing reporter channel
structure (smiles),measurement,setting,value
Cc1oc(-c2ccc(Cl)cc2)nc1CN1CCCC(C(=O)NCc2cccnc2)C1 (centres undefined),AC50,[1],"11.2 µM [rising, partial curve]"
CC1=C(C(=O)Nc2ccccn2)C(c2ccc3c(c2)OCO3)C2=C(CC(C)(C)CC2=O)N1 (centres undefined),AC50,[2],"1.41 µM [rising, partial curve]"
Cc1ccc(CSc2nc3ccncc3n2CC(=O)Nc2cc(C)cc(C)c2)cc1,AC50,[2],"0.141 µM [falling, full curve, poor fit]"
Cn1cccc1/C=C1\SC(=S)N(NC(=O)c2cccc(Cl)c2)C1=O,AC50,[2],"15.8 µM [rising, single point]"
same,AC50,[1],"25.1 µM [rising, single point]"
O=c1[nH]nc(Cc2ccc(-c3cccc(Cl)c3)o2)c2ccccc12,AC50,[1],"20 µM [rising, single point]"
CCOC(=O)c1cn(Cc2cccc(Cl)c2)nn1,AC50,[2],"25.1 µM [rising, partial curve, poor fit]"
Cc1ccc(Cl)cc1N1CCN(C(=O)CN2C(=O)c3cccc4cccc2c34)CC1,AC50,[1],"17.8 µM [rising, partial curve, poor fit]"
CCOc1cc(N2CCOCC2)c(OCC)cc1NC(=O)CSc1ncn[nH]1,AC50,[2],"0.708 µM [rising, full curve, poor fit]"
CCOc1ccc(OCc2ccc(C(=O)N3N=C(C(F)F)CC3(O)C(F)F)o2)cc1 (centres undefined),AC50,[1],"35.5 µM [rising, single point]"
O=C(COCc1cc(-c2ccc3c(c2)OCO3)on1)Nc1cccc(O)c1,AC50,[2],"5.62 µM [rising, full curve]"
Cc1cc(C)c(S(=O)(=O)ON2C(=O)c3ccccc3C2=O)cc1C,AC50,[2],"35.5 µM [falling, single point]"
same,AC50,[1],"35.5 µM [falling, single point]"
CCOc1ccc2oc(C(=O)NC3CCN(Cc4ccccc4)CC3)c(C)c2c1,AC50,[2],"11.2 µM [falling, single point]"
same,AC50,[1],"8.91 µM [falling, single point]"
CCN(CC)C(=O)CN1C(=O)C2(OCC(C)(c3ccccc3)CO2)c2ccccc21 (centres undefined),AC50,[2],"12.6 µM [rising, single point]"
same,AC50,[1],"15.8 µM [rising, single point]"
CCN(CC)S(=O)(=O)c1ccc(OC)c(NC(=O)CSc2cc(C)ccc2C)c1,AC50,[1],"22.4 µM [rising, single point]"
Cc1ccc(C)c(N(CC(=O)NC2CCCC2)C(=O)c2oc(C(C)(C)C)cc2C)c1,AC50,[1],"12.6 µM [rising, single point]"
O=C(COC(=O)c1cn(-c2ccccc2)nc1-c1ccccc1)c1ccc([N+](=O)[O-])cc1,AC50,[2],"15.8 µM [rising, single point]"
same,AC50,[1],"22.4 µM [rising, partial curve, poor fit]"
Nc1cc(-c2nn[nH]n2)ccc1F,AC50,[2],"12.6 µM [falling, single point]"
same,AC50,[1],"17.8 µM [falling, partial curve]"
CN1C(=O)CSc2ccc(NC(=O)N3CCN(c4ccccn4)CC3)cc21,AC50,[1],"15.8 µM [rising, single point]"
CCOc1ccc(OC(=O)c2sc3ncn(Cc4cccc(F)c4)c(=O)c3c2C)cc1,AC50,[2],"0.1 µM [falling, full curve, poor fit]"
same,AC50,[1],"0.316 µM [falling, full curve, poor fit]"
Cc1ccc(C(=O)NNC(=O)c2cccc(S(=O)(=O)N3CCN(c4ccccc4)CC3)c2)cc1,AC50,[2],"12.6 µM [rising, partial curve]"
same,AC50,[1],"14.1 µM [rising, partial curve]"
COc1cc2oc(=O)c3c(c2cc1OCC(=O)c1c(C)n(C)c2ccccc12)CCCC3,AC50,[2],"0.01 µM [rising, full curve, poor fit]"
Cc1ccc[n+](CC(=O)/C=C2\N(C)c3ccccc3C2(C)C)c1,AC50,[2],"2.24 µM [rising, full curve]"
same,AC50,[1],"3.16 µM [rising, full curve]"
CCn1c(=O)c(C(=O)CN2CCCc3ccccc32)c(N)n(Cc2ccccc2)c1=O,AC50,[2],"12.6 µM [rising, single point]"
CCOCCCn1c(SCc2nc3ccccc3s2)nc2ccccc2c1=O,AC50,[2],"3.55 µM [rising, single point]"
same,AC50,[1],"3.98 µM [rising, single point]"
CNC(=S)NCc1ccc2[nH]c(C)cc2c1,AC50,[1],"3.16 µM [falling, partial curve, poor fit]"
CCC(Sc1nc(C)cc(=O)[nH]1)C(=O)Nc1nnc(C)s1 (centres undefined),AC50,[1],"35.5 µM [rising, single point]"
CCN1C2=NCCCN2c2cc(C)c(C)cc21,AC50,[1],"20 µM [rising, single point]"
COc1ccc(CN(Cc2cc3cccc(C)c3n3nnnc23)C(=O)N2CCOCC2)cc1,AC50,[2],"2.82 µM [falling, partial curve]"
Cc1cccc(C(=O)NC(=S)NNC(=O)COc2ccc(Cl)cc2)c1,AC50,[1],"0.0794 µM [falling, full curve, poor fit]"
COc1ccccc1-c1nnc2n1N=C(c1ccc(O)c(O)c1)CS2,AC50,[2],"0.447 µM [falling, full curve]"
same,AC50,[1],"0.501 µM [falling, full curve]"
COc1cc2c(cc1NS(=O)(=O)N1CCCCC1)oc1ccccc12,AC50,[2],"12.6 µM [rising, single point]"
same,AC50,[1],"25.1 µM [rising, single point]"
N#CCC(=O)NNC(=S)NC(=O)C(c1ccccc1)c1ccccc1,AC50,[2],"0.01 µM [falling, full curve, poor fit]"
Cc1ccc2nc(C(F)(F)F)c(C#N)c(N)c2c1,AC50,[2],"25.1 µM [falling, single point]"
same,AC50,[1],"15.8 µM [falling, single point]"
COc1ccccc1-c1noc(CCC(=O)Nc2cccc(C(F)(F)F)c2)n1,AC50,[2],"35.5 µM [rising, single point]"
same,AC50,[1],"35.5 µM [rising, single point]"
N#CC(C(=O)NC1CCCCC1)=C1CCCCCC1,AC50,[1],"1.78 µM [rising, partial curve, poor fit]"
CCOC(=O)c1[nH]c2c(c1C)C(=O)CC(c1ccco1)C2 (centres undefined),AC50,[1],"0.447 µM [rising, full curve]"
FC(F)(F)c1cccc(OCCN2CCN(Cc3ccccc3)CC2)c1,AC50,[1],"35.5 µM [rising, single point]"
COC(=O)c1[nH]c2ccc(C)cc2c1NC(=O)CN1CCN(c2ccc(F)cc2)CC1,AC50,[2],"5.01 µM [rising, full curve]"
same,AC50,[1],"5.01 µM [rising, full curve]"
CCCC(=O)N1c2ccccc2C(=C2SC(C(=O)OC)=C(C(=O)OC)S2)C(=S)C1(C)C,AC50,[1],"14.1 µM [rising, single point]"
C=CCN(c1ccccc1)S(=O)(=O)c1cccc(C(=O)Nc2nc3ccccc3[nH]2)c1,AC50,[2],"11.2 µM [rising, partial curve, poor fit]"
same,AC50,[1],"20 µM [rising, partial curve]"
CC(=O)Oc1cccc2c1C(=O)c1c(OC(C)=O)cc(C(=O)O)cc1C2=O,AC50,[1],"11.2 µM [rising, partial curve]"
CN(C)S(=O)(=O)c1ccc(Cl)c(NC(=O)COC(=O)C2CSC3(C)CCC(=O)N23)c1 (centres undefined),AC50,[1],"0.158 µM [rising, full curve, poor fit]"
CCOc1ccc2nc(COC(=O)c3ccncc3)c(C(=O)c3ccccc3)[n+]([O-])c2c1,AC50,[2],"1.78 µM [rising, partial curve, poor fit]"
CCCCc1ccc(NC(=S)Nc2ccc(Cl)c(S(=O)(=O)N(C)C)c2)cc1,AC50,[1],"35.5 µM [rising, single point]"
CSc1ccc2c(c1)N(CC[C@H]1CCCCN1C)c1ccccc1S2,AC50,[2],"5.62 µM [falling, partial curve, poor fit]"
CCOC(=O)N1CCC(N(CCN(C)C)C(=S)Nc2cccc(Cl)c2C)CC1,AC50,[1],"35.5 µM [rising, single point]"
COc1cc(CC(=O)Nc2cc(S(C)(=O)=O)ccc2Cl)cc(OC)c1OC,AC50,[2],"0.126 µM [falling, full curve, poor fit]"
CCOc1ccc(NC(=O)NC(=O)N(C)S(=O)(=O)c2ccc(C)cc2)cc1,AC50,[1],"0.0126 µM [falling, full curve, poor fit]"
Cn1cc(Cl)c(C(=O)NC2CCCC2)n1,AC50,[1],"0.447 µM [rising, full curve, poor fit]"
Cc1cc(C(=O)CSc2nnnn2-c2ccc(Cl)cc2)c(C)n1CC1CCCO1 (centres undefined),AC50,[1],"5.62 µM [rising, full curve, poor fit]"
CN(c1ccccc1)S(=O)(=O)c1cccc(C(=O)Nc2ccc3c(c2)CCC3)c1,AC50,[2],"11.2 µM [rising, partial curve]"
same,AC50,[1],"14.1 µM [rising, partial curve]"
COc1ccccc1CNC(=O)c1c[nH]c2ccc(S(=O)(=O)Nc3cc(C)cc(C)c3)cc2c1=O,AC50,[2],"15.8 µM [falling, partial curve, poor fit]"
same,AC50,[1],"1.41 µM [falling, full curve, poor fit]"
CC1Cc2ccccc2N1C(=S)NC(=O)c1ccc(Cl)cc1Cl (centres undefined),AC50,[1],"35.5 µM [rising, single point]"
Cc1cc(/C=N/NC(=O)c2ccccc2F)c(C)n1-c1ccccc1,AC50,[2],"4.47 µM [rising, partial curve, poor fit]"
COc1cccc(CNc2cnc3ccccc3c2)c1O,AC50,[2],"35.5 µM [rising, single point]"
same,AC50,[1],"35.5 µM [rising, single point]"

# Three entries picked at random from those above, as already listed:
structure (smiles),measurement,setting,value
CSc1ccc2c(c1)N(CC[C@H]1CCCCN1C)c1ccccc1S2,AC50,[2],"5.62 µM [falling, partial curve, poor fit]"
CCOCCCn1c(SCc2nc3ccccc3s2)nc2ccccc2c1=O,AC50,[1],"3.98 µM [rising, single point]"
Cc1ccc(C(=O)NNC(=O)c2cccc(S(=O)(=O)N3CCN(c4ccccc4)CC3)c2)cc1,AC50,[2],"12.6 µM [rising, partial curve]"

# An excerpt of these results, with bars between the fields.
structure (smiles) | measurement | setting | value
Cc1ccc2nc(C(F)(F)F)c(C#N)c(N)c2c1 | AC50 | [1] | 15.8 µM [falling, single point]
COc1ccccc1-c1noc(CCC(=O)Nc2cccc(C(F)(F)F)c2)n1 | AC50 | [2] | 35.5 µM [rising, single point]
